Results taken from the supplement of paper PMC3741180, “A Novel High Throughput Biochemical Assay to Evaluate the HuR Protein-RNA Complex Formation” (PLoS ONE, 2013).
This is one part of the list. This data set is noisy: repeats of one test often differ as much as different tests do.

Sequences of proteins named here, by UniProt entry; tags and fusion partners are left off.
UniProt Q15717, whole entry: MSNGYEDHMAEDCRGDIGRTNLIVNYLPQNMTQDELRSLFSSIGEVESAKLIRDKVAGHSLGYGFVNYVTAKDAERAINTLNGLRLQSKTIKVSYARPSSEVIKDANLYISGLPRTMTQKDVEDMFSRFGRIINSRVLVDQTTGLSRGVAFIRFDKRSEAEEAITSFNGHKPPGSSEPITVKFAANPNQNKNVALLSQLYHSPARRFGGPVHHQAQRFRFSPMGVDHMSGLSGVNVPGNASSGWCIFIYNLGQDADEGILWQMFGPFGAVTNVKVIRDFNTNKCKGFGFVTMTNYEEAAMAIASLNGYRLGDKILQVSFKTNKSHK

What follows are molecules tested against HuR (ELAVL1) - TNFalpha ARE RNA complex (UniProt Q15717) (assay: AlphaScreen HuR-RNA complex signal Z-score relative to positive (Bi-TNF, DMSO) controls (Z-score (SD units of positive control)); higher = more complex signal). Conditions: screen stage: primary screen; compound concentration: 25 nM.

Row | SMILES | AlphaScreen HuR-RNA complex signal Z-score
1 | NS(=O)(=O)c1cc2c(cc1C(F)(F)F)NC(Cc1ccccc1)NS2(=O)=O (stereo unspecified) | 1.3
2 | CN(C)CCCC1(c2ccc(F)cc2)OCc2cc(C#N)ccc21 (stereo unspecified) | 1.25
3 | CCCC(CCC)C(=O)O | -0.851
4 | Cc1onc(-c2ccccc2)c1C(=O)N[C@@H]1C(=O)N2[C@@H]1SC(C)(C)[C@@H]2C(=O)O | -3.01
5 | COc1c2c(cc3occ(-c4ccc5c(c4)OCO5)c(=O)c13)OC(C)(C)C=C2 | 3.67
6 | CC1(C)O[C@H]2[C@H](O)C[C@](O)(C(N)=O)C[C@H]2O1 | 1.81
7 | COC1=CC(=O)C[C@@H](C)[C@]12Oc1c(Cl)c(OC)cc(OC)c1C2=O | 0.299
8 | CCC(=O)NCC[C@@H]1CCc2ccc3c(c21)CCO3 | 0.853
9 | CC[C@H](/C=C/[C@@H](C)[C@H]1CC[C@H]2[C@@H]3CCC4=CC(=O)CC[C@]4(C)[C@H]3CC[C@]12C)C(C)C | 0.442
10 | COc1ccc(-c2coc3cc(O)cc(O)c3c2=O)cc1 | 0.836
11 | COc1cc2c(cc1OC)C(=O)OC2 | 1.18
12 | OCC(O)CN1CCN(c2ccccc2)CC1 (stereo unspecified) | 0.937
13 | O=C(O)c1ccccc1Nc1cccc(OCc2ccc3ccccc3n2)c1 | 3.29
14 | COc1ccc2cc1Oc1ccc(cc1)C[C@H]1c3c(cc4c(c3Oc3cc5c(cc3OC)CCN(C)[C@@H]5C2)OCO4)CCN1C | 0.548
15 | COc1ccc(-c2cc(=O)c3c(O)cc(OC)c(OC)c3o2)c(OC)c1 | 2.08
16 | COc1ccc(CC(=O)c2ccc(O)cc2O)cc1 | 0.762
17 | CCOC(=O)c1ccc(O)cc1 | 0.412
18 | Cc1c(OCC(F)(F)F)ccnc1C[S+]([O-])c1nc2ccccc2[nH]1 (stereo unspecified) | 0.678
19 | O=C(/C=C/c1ccccc1)c1ccc(O)cc1O | 0.628
20 | Cn1c(=O)c2c(ncn2C)n(C)c1=O | 0.399
21 | CC1(C)CC[C@]2(C)CC[C@]3(C)C(=CC[C@@H]4[C@@]5(C)CC[C@H](O)C(C)(C)[C@@H]5CC[C@]43C)[C@@H]2C1 [beta-AMYRIN] | 1.86

Row | SMILES | AlphaScreen HuR-RNA complex signal Z-score
22 | COC(=O)Nc1nc2cc(C(=O)c3ccccc3)ccc2[nH]1 | 0.261
23 | CC1(C)S[C@@H]2[C@H](NC(=O)[C@H](NC(=O)N3CCNC3=O)c3ccccc3)C(=O)N2[C@H]1C(=O)O | 1.29
24 | COc1c(-c2coc3cc4c(cc3c2=O)CC(OC(C)=O)C(C)(C)O4)ccc2c1C=CC(C)(C)O2 (stereo unspecified) | 0.644
25 | NC(=O)c1cc[n+](CC2=C(C(=O)O)N3C(=O)[C@@H](NC(=O)[C@@H](c4ccccc4)S(=O)(=O)[O-])[C@H]3SC2)cc1 | 1.68
26 | CC(=O)Oc1ccc2c(c1)CC[C@@H]1[C@@H]2CC[C@]2(C)[C@@H](O)CC[C@@H]12 | 1.2
27 | COc1ccc(C(Cl)=C(c2ccc(OC)cc2)c2ccc(OC)cc2)cc1 | -3.06
28 | O=C(O)c1cccc(O)c1O | 1.88
29 | CC(CCc1ccccc1)NCC(O)c1ccc(O)c(C(N)=O)c1 (stereo unspecified) | 1.31
30 | CCOC(=O)[C@H](CCc1ccccc1)N[C@@H](C)C(=O)N1Cc2ccccc2C[C@H]1C(=O)O | 0.148
31 | Cc1cc(O)c(C=O)c2c1C(=O)Oc1c(C)c(O)c3c(c1O2)C(O)OC3=O (stereo unspecified) | 0.517
32 | Cc1onc(-c2c(Cl)cccc2Cl)c1C(=O)N[C@@H]1C(=O)N2[C@@H]1SC(C)(C)[C@@H]2C(=O)O | -6.19
33 | COc1cc(OC)c(C(C)=O)c(O)c1C | 1.78
34 | CN(C)/N=N/c1[nH]cnc1C(N)=O | 1.05
35 | C[N+](C)(C)CCCCCC[N+](C)(C)C | 2.55
36 | COc1c2ccoc2c(OC)c2oc(=O)ccc12 | 0.794
37 | COc1ccc([C@@H]2CC(=O)c3c(O)cc(O[C@@H]4O[C@H](CO[C@@H]5O[C@@H](C)[C@H](O)[C@@H](O)[C@H]5O)[C@@H](O)[C@H](O)[C@H]4O)cc3O2)cc1O | 2.4
38 | CC(C)(C(=O)O)c1ccc(C(O)CCCN2CCC(C(O)(c3ccccc3)c3ccccc3)CC2)cc1 (stereo unspecified) | 1.69
39 | CN(C)CCCN1c2ccccc2Sc2ccccc21 | 4.21
40 | Cc1cc(C(C)(C)C)c(O)c(C)c1CC1=NCCN1 | 6.38
41 | O=C[C@H](O)[C@@H](O)[C@H](O)CO | 2.41
42 | C=CC(C1=CC(=O)C=CC1=O)c1ccccc1 (stereo unspecified) | 2.56

Row | SMILES | AlphaScreen HuR-RNA complex signal Z-score
43 | COC(=O)[C@H](OC(C)=O)[C@H]1C(C)(C)[C@H](OC(C)=O)[C@@H]2CC3=C4CC(=O)O[C@@H](c5ccoc5)[C@]4(C)CC[C@@H]3[C@@]1(C)C2=O | -2.17
44 | COC(=O)[C@H]1[C@H]2C[C@H]3c4[nH]c5ccccc5c4CCN3C[C@@H]2CC[C@@H]1O | 2.06
45 | CC(=O)Nc1ccccc1 | 1.32
46 | COc1ccc2c(=O)c(-c3cc4c(cc3OC)OCO4)coc2c1 | 1.5
47 | COc1ccc2c(c1)OC/C(=C\c1ccc(OC)c(O)c1)C2=O | 1.07
48 | C[N+]1(C)[C@@H]2CC[C@H]1C[C@@H](OC(=O)C(O)c1ccccc1)C2 (stereo partly specified) | -0.838
49 | COc1ccc2c(c1)OC1(O)COc3cc(OC)c(OC)cc3C1=C2 (stereo unspecified) | 2.17
50 | Oc1ncnc2[nH]ncc12 | 0.719
51 | CC1(C)C(=O)C=C[C@]2(C)[C@H]3CC[C@@]4(C)[C@H](c5ccoc5)OC(=O)[C@H]5O[C@]54[C@]3(C)C(=O)C[C@@H]12 | 1.44
52 | CNCCCC1c2ccccc2C=Cc2ccccc21 | 1.34
53 | C[C@]12CCC(=O)C=C1CC[C@@H]1[C@@H]2[C@@H](O)C[C@@]2(C)[C@H]1CC[C@]2(O)C(=O)CO | 0.412
54 | COc1ccc(CCN(C)CCCC(C#N)(c2ccc(OC)c(OC)c2)C(C)C)cc1OC (stereo unspecified) | 0.802
55 | CCCc1cc(=O)[nH]c(=S)[nH]1 | 11.3
56 | CC1=C(CCC(=O)O)c2cc3[nH]c(cc4nc(cc5[nH]c(cc1n2)c(C)c5C(C)O)C(C)=C4C(C)O)c(C)c3CCC(=O)O (stereo unspecified) | 2.32
57 | c1ccc2c(Cc3c[nH]c4ccccc34)c[nH]c2c1 | 1.24
58 | CO/N=C(\C(=O)N[C@@H]1C(=O)N2C(C(=O)OCOC(=O)C(C)(C)C)=C(/C=C\c3scnc3C)CS[C@H]12)c1csc(N)n1 | -7.88
59 | CN(N=O)C(=O)N[C@H]1C(O)O[C@H](CO)[C@@H](O)[C@@H]1O (mixture of isomers) | -1.91
60 | CCCCC(=O)O[C@H]1CC[C@H]2[C@@H]3CCc4cc(O)ccc4[C@H]3CC[C@]12C | -2.76
61 | COc1ccc2oc(-c3ccccc3OC)cc(=O)c2c1 | 1.67

In the list so far, these contain a Cl atom:
Row | SMILES | AlphaScreen HuR-RNA complex signal Z-score
7 | COC1=CC(=O)C[C@@H](C)[C@]12Oc1c(Cl)c(OC)cc(OC)c1C2=O | 0.299
27 | COc1ccc(C(Cl)=C(c2ccc(OC)cc2)c2ccc(OC)cc2)cc1 | -3.06
32 | Cc1onc(-c2c(Cl)cccc2Cl)c1C(=O)N[C@@H]1C(=O)N2[C@@H]1SC(C)(C)[C@@H]2C(=O)O | -6.19
